# Counter-ions that a name gives are not always drawn. Screen size: about 5,300 compounds; about 130 (2.5%) showed an effect of 50% or more. This is one part of the list.
# Tested on: M. mycetomatis strain mm55
# Conditions: primary screen, metabolic activity vs growth control; 96 h, 2 µM; inhibitor
row,SMILES,% viability [%]
1,"CN1CCC(OC(c2ccccc2)c2ccccc2)CC1 [ONC0000702, diphenylpyraline hydrochloride]",115.4
2,"FC(F)(F)c1cccc(-c2noc(-c3cc(-c4ccccc4)c(C(F)(F)F)s3)n2)c1 [ONC0003601, sew2871]",86.58
3,"COc1cc(/C=C/C(=O)CC(=O)/C=C/c2ccc(O)c(OC)c2)ccc1O [ONC0004898, curcumin]",124.2
4,"N=C(N)NCCC[C@@H](N)C(=O)O [ONC0004802, larginine hcl]",91.52
5,"O=C(O)CSCC(=O)NC1CCSC1=O (stereo not drawn) [ONC0000438, erdosteine]",68.51
6,"CC(C)(C)S(=O)(=O)N[C@H]1CC[C@H](C(=O)Nc2ccc(C(F)(F)F)cn2)CC1 [ONC0001819, velneperit]",85.83
7,"[2H]C([2H])([2H])C(O)(CCO[C@@H](C)[C@H]1CC[C@H]2/C(=C/C=C3/C[C@@H](O)C[C@H](O)C3=C)CCC[C@]12C)C([2H])([2H])[2H] [ONC0001868, maxacalcitol]",112.3
9,"CC(=O)N1CCC(NC(=O)c2ccc(F)cc2)CC1 [ONC0002309, fk962]",80.77
10,"CN1C(=O)N(c2ccc(C#N)c(C(F)(F)F)c2)C(=O)[C@@]1(CO)c1ccccc1 [ONC0001091, glpg0492]",63.42
11,"COC1/C=C/OC2(C)Oc3c(C)c(O)c4c(O)c(c(/C=N/N=C/N5CCCCC5)c(O)c4c3C2=O)NC(=O)/C(C)=C\C=C\C(C)C(O)C(C)C(O)C(C)C(OC(C)=O)C1C (stereo not drawn) [ONC0003798, fce22250]",33.52
12,"NC(C(=O)O)c1cc(O)cc(O)c1 (stereo not drawn) [ONC0001409, dihydroxyphenylglycine]",59.13
13,"NCC[C@H](O)C(=O)N[C@@H]1C[C@H](N)[C@@H](O[C@H]2O[C@H](CN)[C@@H](O)[C@H](O)[C@H]2O)[C@H](O)[C@H]1O[C@H]1O[C@H](CO)[C@@H](O)[C@H](N)[C@H]1O [ONC0000307, amikacin hydrate]",80.85
14,"Cc1onc(O)c1C[C@H](N)C(=O)O [ONC0000721, ampas]",67.9
15,"O=C1c2cccc3c2[C@H](CCC3)CN1[C@@H]1CN2CCC1CC2 [ONC0004369, palonosetron hcl]",123.7
16,"[H]/N=C(\N/C(=N/[H])Nc1ccc(Cl)cc1)NC(C)C [ONC0002393, chloroguanide hydrochloride]",99.65
17,"CCCCCCN(CCCCCC)C(=O)Cc1c(-c2ccc(Cl)cc2)[nH]c2ccc(Cl)cc12 [ONC0002645, fgin143]",79.58
18,"COc1ccc(CCN(C)CCCOc2ccc(S(=O)(=O)c3c(C(C)C)c4ccccc4n3C)cc2)cc1OC [ONC0004278, sr33805 oxalate]",80
19,"COc1cc(C)c2c(Oc3cccc(C(F)(F)F)c3)c(OC)cc(NC(C)CCCN)c2n1 (stereo not drawn) [ONC0005464, tafenoquine]",90.07
20,"NCCCCCCCCCCNS(=O)(=O)c1cccc2c(Cl)cccc12 [ONC0002708, a7]",47.48

# Of the compounds above, these have an aryl methoxy group:
row,SMILES,% viability [%]
3,"COc1cc(/C=C/C(=O)CC(=O)/C=C/c2ccc(O)c(OC)c2)ccc1O [ONC0004898, curcumin]",124.2
18,"COc1ccc(CCN(C)CCCOc2ccc(S(=O)(=O)c3c(C(C)C)c4ccccc4n3C)cc2)cc1OC [ONC0004278, sr33805 oxalate]",80
19,"COc1cc(C)c2c(Oc3cccc(C(F)(F)F)c3)c(OC)cc(NC(C)CCCN)c2n1 (stereo not drawn) [ONC0005464, tafenoquine]",90.07

# Later entries:

row,SMILES,% viability [%]
1,"C#C[C@]1(O)CC[C@H]2[C@@H]3CCC4=CCCC[C@@H]4[C@H]3C(=C)C[C@@]21CC [ONC0005535, desogestrel]",146.6
2,"CC(C)C(=O)Nc1ccc([N+](=O)[O-])c(C(F)(F)F)c1 [ONC0003182, flutamide]",96.12
3,"OC[C@H]1O[C@@H](n2cnc3c(NC4CCCC4)nc(Cl)nc32)[C@H](O)[C@@H]1O [ONC0003057, 2chloron6cyclopentyladenosine]",61.63
4,"CC(C)NC(=O)c1ccc(C#Cc2ccncc2)cn1 [ONC0003042, lsn2463359]",112.3
5,"CC(=O)Oc1cc2c(s1)CCN(C(C(=O)C1CC1)c1ccccc1F)C2 (stereo not drawn) [ONC0001894, prasugrel]",72.97
6,"CS(=O)(=O)N(Cc1ccco1)CC(O)Cn1c2ccccc2c2ccccc21 (stereo not drawn) [ONC0000142, kl001]",116.3
7,"CC(O)CCCCn1c(=O)c2c(ncn2C)n(C)c1=O (stereo not drawn) [ONC0005607, ü¾Œ–ˆ¼lisofylline]",79.45
8,"CO/N=C(\C(=O)N[C@@H]1C(=O)N2C(C(=O)O)=C(C)CS[C@H]12)c1csc(N)n1 [ONC0005489, cefetamet]",95.62
9,"S=C(NCc1ccc2c(c1)OCO2)N1CCN(c2ncnc3c2oc2ccccc23)CC1 [ONC0004908, amuvatinib mp470]",75.33
10,"OCCN1C[C@H](O)[C@@H](O)[C@H](O)[C@H]1CO [ONC0003900, miglitol]",63.13
11,"CCC(=O)NC1CCc2cccc(OC)c2C1 (stereo not drawn) [ONC0000834, 8mpdot]",64.2
12,"C[n+]1ccccc1CN=O [ONC0005627, pralidoximechloride]",80.2
13,"CCCC1(CCC)CCC2(CCN(CCCN(CC)CC)C2)CC1 [ONC0001653, atiprimod]",63.1
14,"CC1=CC[C@@H](C(C)(C)O)C[C@@H]1O [ONC0004123, sobrepin]",88.87
15,"C[C@H](c1ccc(F)cc1CCCC(=O)O)N(c1cc(F)ccc1F)S(=O)(=O)c1ccc(Cl)cc1 [ONC0004701, bms 299897]",117.6
16,"N[C@@H](Cc1cc(-c2ccc(Cl)cc2Cl)cc(CP(=O)(O)O)c1O)C(=O)O [ONC0001482, sdz220040]",68.11
17,"CC1(C)CCC2=C(O1)c1ccccc1C(=O)C2=O [ONC0001111, lapachone]",52.37
18,"COc1cc(Oc2ccnc3cc(OC)c(OC)cc23)ccc1NC(=O)NC(C)c1nccs1 (stereo not drawn) [ONC0002728, ki20227]",85.43
19,"CCOC(=O)[C@@]1(CCCCCCOc2ccc(Cl)cc2)CO1 [ONC0001271, etomoxir]",56.3
20,"CC(C)(C)c1cc(OC(=O)c2cccs2)ccc1O [ONC0003805, 2methoxyphenyl 24isobutylphenylpropanoate]",77.07

row,SMILES,% viability [%]
1,"COc1cc(OC)c(C(=O)CCCCN2CCC3(CC2)NC(=O)NC3=O)cc1NS(=O)(=O)c1ccc(C(F)(F)F)cc1 [ONC0002710, rs102221]",67.76
2,"Cn1c(Nc2ccc(C(F)(F)F)cc2)nc2cc(Oc3ccnc(-c4ncc(C(F)(F)F)[nH]4)c3)ccc21 [ONC0005005, raf265 chir265]",41.37
3,"NC(=O)c1cnc2[nH]ccc2c1N[C@@H]1C2C[C@@H]3C[C@H]1C[C@](O)(C2)C3 [ONC0004336, peficitinib asp015k jnj54781532]",124.4
4,"COC(=O)C1=C(C)NC(C)=C(C(=O)OC(C)C)C1c1cccc2nonc12 (stereo not drawn) [ONC0001749, isradipine]",95.55
5,"O=C1OC(OC(=O)c2cccnc2Nc2cccc(C(F)(F)F)c2)c2ccccc21 (stereo not drawn) [ONC0002996, talniflumate]",108.3
6,"O=C(O)c1cc(N2N=C(C(F)(F)F)/C(=C/c3ccc(-c4ccccc4)o3)C2=O)ccc1Cl [ONC0000997, en460]",106.5
7,"CC(=O)SCC(Cc1ccccc1)C(=O)NCC(=O)OCc1ccccc1 (stereo not drawn) [ONC0004207, racecadotril]",101.8
8,"C[C@H](CCC(=O)O)[C@H]1CC[C@H]2[C@@H]3CC[C@@H]4C[C@H](O)CC[C@]4(C)[C@H]3CC[C@]12C [ONC0004527, lithocholic acid]",65.89
9,"N[C@@H](CSCCCO)C(=O)O [ONC0004725, fudosteine]",82.66
10,"COc1ccc(C(CN(C)C)C2(O)CCCCC2)cc1 (stereo not drawn) [ONC0002399, venlafaxine hydrochloride]",83.11
11,"O=C(/C=C/N1C[C@H]2C[C@@H]1CN2c1ccccn1)c1ccccc1O [ONC0004408, pfi3]",134.3
12,"CC1COc2c(N3CCN(C)CC3)c(F)cc3c(=O)c(C(=O)O)cn1c23 (stereo not drawn) [ONC0003885, ofloxacin]",77.75
13,"N[C@@H](C(=O)O)[C@@H](OCc1ccccc1)C(=O)O.N[C@H](C(=O)O)[C@H](OCc1ccccc1)C(=O)O [ONC0000803, tboadl]",62.99
14,"COCC(=O)Nc1c(I)c(C(=O)NCC(O)CO)c(I)c(C(=O)N(C)CC(O)CO)c1I (stereo not drawn) [ONC0002916, iopromide]",66.94
15,"CC(C)(C(=O)O)c1ccc(C(=O)CCCN2CCC(OC(c3ccccc3)c3ccccc3)CC2)cc1 [ONC0002774, carebastine]",121.8
16,"CN1CCN(c2cc3c(cc2F)c(=O)c(C(=O)O)cn3-c2ccc(F)cc2)CC1 [ONC0002850, difloxacin hydrochloride]",104.7
17,"O=C(O)CCCC[C@@H]1SC[C@@H]2NC(=O)N[C@@H]21 [ONC0000517, biotin]",93.92
18,"Cc1cccc(OCC(O)CNC(C)(C)C)c1C (stereo not drawn) [ONC0002362, xibenolol]",46.41
19,"C[C@H](Nc1ncnc2[nH]cnc12)c1cc2cccc(Cl)c2c(=O)n1-c1ccccc1 [ONC0004561, duvelisib ipi145 ink1197]",69.33
20,"CCc1ccc(C(=O)C(C)CN2CCCCC2)cc1 (stereo not drawn) [ONC0002786, eperisone hcl]",132
